Reference: publication PMC12040169 (PLOS Biology, 2025)
The list shows a part of the results.

test system: T1, CTL2-GFP (C. trachomatis L2/434/Bu, GFP-expressing); set-up: species or system HeLa; Intracellular C. trachomatis growth in HeLa cells, bulk GFP fluorescence relative to DMSO; settings: bulk GFP, single well; 28.5 h, 10 µM; inhibitor
T1 construct: L2/434/Bu, GFP-expressing

| Compound | % of control remaining |
| --- | --- |
| CC12CC(NC(=O)N1c1ccc(C(=O)O)cc1)c1ccccc1O2 (stereo not drawn) [CBK287226] | 122.497% |
| O=C(CSc1nnc(-c2cccc(Br)c2)o1)Nc1cccc([N+](=O)[O-])c1 [CBK264212] | 96.7229% |
| O=S(=O)(c1cccc(S(=O)(=O)N2CCOCC2)c1)c1ccc(Cl)c(S(=O)(=O)N2CCOCC2)c1 [CBK261260] | 94.1174% |
| COc1ccc([C@@]2(O)CC[C@@H]3CN(C(=O)C4CCCC4)C[C@@H]32)cc1 [CBK285260] | 138.025% |
| CC1CCC(C(=O)Nc2ccc(C(=O)O)cc2)CC1 (stereo not drawn) [CBK287234] | 112.985% |
| Cc1cccc(Nc2nc(C)cc3n[nH]c(=O)n23)c1 [CBK288477] | 46.256% |
| CSc1nc(NC(=O)c2cccs2)cc(N2CCNCC2)n1 [CBK050315T] | 130.83% |
| COc1cccc2c1CCN=C2C[C@H]1CN(C(=O)C2CC2)CC[C@H]1CC(=O)O [CBK289164] | 102.673% |
| Cc1nccn1CC1CCCN(Cc2nc3ccccc3n2C)C1 (stereo not drawn) [CBK281975] | 144.997% |
| Cn1c(CN2CCN(S(C)(=O)=O)CC2)nc2cc([N+](=O)[O-])ccc21 [CBK268362] | 130.806% |
| Cc1ccccc1Sc1cc(C(F)(F)F)ccn1 [CBK115233] | 143.852% |
| Cc1cc(NC(=O)c2nn(-c3nc4ccccc4s3)c3ccccc23)no1 [CBK048489] | 132.507% |
| CC(CNC(=O)C1CCCCC1C(=O)O)c1ccccc1 (stereo not drawn) [CBK268028] | 121.782% |
| O=C(NCCn1nc(-c2cccs2)ccc1=O)c1ccccc1F [CBK283835] | 108.324% |
| O=C(CSc1nnc(-c2ccccc2)[nH]1)c1cccc([N+](=O)[O-])c1 [CBK263287] | 117.987% |
| O=C(Nc1cccnc1)c1cc(S(=O)(=O)N2CCOCC2)ccc1Cl [CBK262099] | 109.453% |
| CCCn1cc(NC(=O)NCc2cc3c(cc2OC)CCC3)nn1 [CBK306614] | 119.455% |
| O=C(Oc1n[nH]c2ccccc12)c1ccc(Cl)cc1 [CBK009976] | 109.57% |
| Cc1nccn1C(C(=O)NCC1(C)COC1)c1ccccc1 (stereo not drawn) [CBK281743] | 158.538% |
| C[S+]([O-])c1nc2ccccc2s1 (stereo not drawn) [CBK028233] | 116.031% |
| Cc1c(C(C)NCC2CCN(C)CC2)cnn1-c1ccc(C#N)cc1 (stereo not drawn) [CBK304058] | 113.564% |
| CCc1ccc(CNC2CCN(Cc3cscn3)CC2)o1 [CBK305104] | 125.199% |
| O=C(O)COc1ccc(Br)cc1/C=C1\N=C(SCc2ccccc2)SC1=O [CBK265725] | 124.967% |
| Clc1ccc(-c2ccc(/C=N/c3ccc4oc(-c5ccccc5)nc4c3)o2)cc1 [CBK261969] | 87.0897% |
| CCOC(=O)CC1C(=O)NCCN1C/C=C\c1ccccc1OC (stereo not drawn) [CBK269791] | 100.133% |
| Cc1ccccc1C(=O)NC1(C(F)(F)F)C(=O)Nc2c1c(=O)[nH]c(=O)n2CCc1ccccc1 (stereo not drawn) [CBK267483] | 142.201% |

| Compound | % of control remaining |
| --- | --- |
| CCC1CCCCN1C(=O)c1ccc(C)c(Br)c1 (stereo not drawn) [CBK081559] | 84.3519% |
| Cc1ncccc1COC(=O)N1CCSCC1 [CBK200156] | 94.5883% |
| Clc1ccc(Nc2nc(-c3ccoc3)cn3ccnc23)cc1 [CBK066497] | 130.383% |
| CC1CCN(CC(CS(=O)(=O)c2ccc([N+](=O)[O-])cc2)N2CCC(C)CC2)CC1 (stereo not drawn) [CBK267506] | 136.334% |
| COc1ccc(/N=C2\NC(=O)/C(=C\C=C\c3ccccc3)S2)cc1 [CBK263417] | 126.343% |
| CN1CCN(c2ccc(-c3cncc(NC4CCOCC4)n3)cn2)CC1 [CBK037229] | 205.033% |
| O=S(=O)(c1ccc(C(F)(F)F)cc1)c1ccc2nccc(N3CCNCC3)c2c1 [CBK200016C] | 115.931% |
| CCN(Cc1ccc(C#N)cc1F)C(=O)NC(C)c1cnn(C)c1C (stereo not drawn) [CBK305643] | 114.895% |
| CNC(=O)c1cccc(NC(=O)c2cc(-c3ccc(O)cc3)cnc2N(C)C)c1 [CBK106397] | 116.066% |
| O=C(N/N=C/c1cc([N+](=O)[O-])ccc1Cl)c1ccc(O)c(O)c1 [CBK261599] | 78.2392% |
| CC(C)c1ccc2c(c1)C(N1CCN(C)CC1)Cc1cccnc1S2 (stereo not drawn) [CBK026244G] | 100% |
| O=C(Nc1ccc2ncccc2c1)c1cnc(-c2cccc(C(F)(F)F)c2)c(-c2cccnc2)c1 [CBK037591] | 106.794% |
| c1ccc([C@@H]2CN(Cc3ccncc3)C[C@H]2c2cc[nH]n2)cc1 [CBK285161] | 108.653% |
| COc1ccccc1C(=O)N1CCC(Cc2cccc(-c3cccs3)c2)(C(N)=O)CC1 [CBK285742] | 92.5356% |
| Nc1ncc(-c2ccco2)nc1-c1ccc(C=O)cc1 [CBK064095] | 127.047% |
| Fc1ccc([C@@H]2CN(Cc3cccnc3)C[C@H]2c2cc[nH]n2)cc1 [CBK283054] | 110.482% |
| O=C(c1cnoc1-c1ccc([N+](=O)[O-])cc1)N1CCCC1 [CBK153846] | 114.273% |
| COc1ccc(-c2nc(NCc3ccccc3)n(C(=O)c3ccc([N+](=O)[O-])cc3)n2)cc1 [CBK268265] | 140.01% |
| COc1ccc(-c2cnn(-c3cncnc3)n2)cc1 [CBK112763] | 108.832% |
| Cc1ccccc1NC(=O)Cn1cnc2c(cnn2-c2ccccc2)c1=O [CBK287530] | 144.137% |
| CCC(O)CNS(=O)(=O)c1ccc(C(C)C)cc1 (stereo not drawn) [CBK043543] | 105.142% |
| CCOc1ccccc1NC(=O)NCCSCc1ccco1 [CBK057501] | 118.47% |
| CCNS(=O)(=O)c1ccc2c(c1)N(Cc1nc(C)c(C)o1)CC2 [CBK305189] | 129.557% |
| Cc1c(C(C)NCC(O)c2ccncc2)cnn1-c1ccc(C#N)cc1 (stereo not drawn) [CBK305403] | 115.465% |
| Cc1cccc(CCN2CCC3(CC2)NCCc2c3[nH]c3ccc(Br)cc23)c1 [CBK039280] | 86.6361% |
| COc1ccc(Oc2nccnc2N2CCN(Cc3ccc(Cl)c(Cl)c3)CC2)cc1OC [CBK083038T] | 86.9986% |

Shown bar-delimited: part of the list above
Compound | % of control remaining
CNC(=O)c1cccc(NC(=O)c2cc(-c3ccc(O)cc3)cnc2N(C)C)c1 [CBK106397] | 116.066%
O=C(N/N=C/c1cc([N+](=O)[O-])ccc1Cl)c1ccc(O)c(O)c1 [CBK261599] | 78.2392%
CC(C)c1ccc2c(c1)C(N1CCN(C)CC1)Cc1cccnc1S2 (stereo not drawn) [CBK026244G] | 100%
O=C(Nc1ccc2ncccc2c1)c1cnc(-c2cccc(C(F)(F)F)c2)c(-c2cccnc2)c1 [CBK037591] | 106.794%

(list continues)

| Compound | % of control remaining |
| --- | --- |
| O=C(CCN1C(=O)c2ccc([N+](=O)[O-])cc2C1=O)Nc1ccccc1-c1ccccc1 [CBK265134] | 71.8646% |
| CCC(C)(C)C(=O)Nc1ccc(Cl)nc1 [CBK091334] | 82.1971% |
| CN(C)c1cccc(-c2cncc(Nc3ccc(Cl)cc3)n2)c1 [CBK065738] | 89.0182% |
| Cc1nc2cc(NC(=O)Cc3c(C)nc4ccccc4c3C)ccc2o1 [CBK297083] | 131.653% |
| COc1ccc(C2CC(=O)C(=CNCCN3CCN(C(=O)c4ccccc4)CC3)C(=O)C2)cc1 (stereo not drawn) [CBK264762] | 100% |
| Cn1c(=O)n(C)c2cc(NC(=O)CN(c3ccccc3)S(C)(=O)=O)ccc21 [CBK270094] | 111.338% |
| CC(C)c1cc(C(=O)NC(C)(C)CN2CCCCC2C)n(C)n1 (stereo not drawn) [CBK282644] | 109.692% |
| CCOc1cc(CNCCO)c(Cl)cc1OC [CBK269309C] | 166.356% |
| Nn1c(SCc2cc(=O)[nH]c3ccccc23)nnc1C(O)c1ccccc1 (stereo not drawn) [CBK268405] | 118.926% |
| COc1ccc2[nH]c(=O)c(CN(CCN(C)C)C(=S)Nc3ccc(F)cc3)cc2c1 [CBK135011] | 82.7755% |
| CC(C)Oc1cccc(C(=O)Nc2ccc(N3CCN(C(=O)C(C)(C)C)CC3)cc2)c1 [CBK270280] | 109.286% |
| O=C1c2ccccc2C(=O)N1CCc1nn2c(-c3cccnc3)nnc2s1 [CBK269793] | 132.872% |
| CC1CCCCC1NC(=O)Cn1ncn2c(cc3ccsc32)c1=O (stereo not drawn) [CBK284196] | 78.4234% |
| O=C(NCCc1c[nH]c2ccc(Cl)cc12)c1ccc(Cl)cc1Cl [CBK159750] | 5.5258% |
| Cc1nc(C)c(C(=O)N2CCN(Cc3ccccc3)CC2)s1 [CBK200177] | 98.0911% |
| CN1CCC(N2CCN(C(=O)c3ccc(-c4ccc(OC(F)(F)F)cc4)nc3)CC2)CC1 [CBK156206] | 106.77% |
| CCOc1ccc(Oc2ccc(C(F)(F)F)cc2NC(=O)CCCC(=O)O)cc1 [CBK296993] | 133.306% |
| CC(=O)N[C@H]1CC[C@]2(C)CCC([C@H](C)C(=O)NC3CC3)[C@H](O)[C@H]2[C@@H]1C (stereo partly drawn) [CBK289437] | 102.428% |
| COc1ccccc1-n1nc(CC(C)C)nc1C(C)NS(C)(=O)=O (stereo not drawn) [CBK306660] | 121.436% |
| Cc1ccc(NC(=O)c2nc(-c3ccc(C(=O)N4CCOCC4)cc3)cnc2N)c(O)c1 [CBK149152] | 76.2561% |
| Nc1c(C(=O)c2ccc3c(c2)OCO3)sc2nc(-c3cccnc3)ccc12 [CBK270186] | 134.248% |
| COc1ccc(-c2cnc(N3CCOCC3)c3nccn23)cc1 [CBK091285] | 145.363% |
| O=C(O)CCC(=O)NCC(=O)c1ccc(F)cc1 [CBK057384] | 154.13% |
| CSc1nsc(SCC(=O)Nc2ccc3c(c2)OCO3)n1 [CBK270044] | 117.323% |
| COc1ccc(OC)c(-c2nc(Nc3ccccc3Cl)sc2CC(=O)O)c1 [CBK264190] | 114.347% |
| CC(=O)c1cccc(NC(=O)N(CCO)C2CCCc3ccccc32)c1 (stereo not drawn) [CBK305195] | 126.18% |
